Measurements: the supplement of paper PMC6411743
± gives the standard deviation of the averaged measurements. This is a selection; strong and weak results do not stand in their true shares.

Amino acid sequences for entries named in this document (tags omitted). A change or cut given only in a name is not applied to a line headed by its entry.
UniProt P51784: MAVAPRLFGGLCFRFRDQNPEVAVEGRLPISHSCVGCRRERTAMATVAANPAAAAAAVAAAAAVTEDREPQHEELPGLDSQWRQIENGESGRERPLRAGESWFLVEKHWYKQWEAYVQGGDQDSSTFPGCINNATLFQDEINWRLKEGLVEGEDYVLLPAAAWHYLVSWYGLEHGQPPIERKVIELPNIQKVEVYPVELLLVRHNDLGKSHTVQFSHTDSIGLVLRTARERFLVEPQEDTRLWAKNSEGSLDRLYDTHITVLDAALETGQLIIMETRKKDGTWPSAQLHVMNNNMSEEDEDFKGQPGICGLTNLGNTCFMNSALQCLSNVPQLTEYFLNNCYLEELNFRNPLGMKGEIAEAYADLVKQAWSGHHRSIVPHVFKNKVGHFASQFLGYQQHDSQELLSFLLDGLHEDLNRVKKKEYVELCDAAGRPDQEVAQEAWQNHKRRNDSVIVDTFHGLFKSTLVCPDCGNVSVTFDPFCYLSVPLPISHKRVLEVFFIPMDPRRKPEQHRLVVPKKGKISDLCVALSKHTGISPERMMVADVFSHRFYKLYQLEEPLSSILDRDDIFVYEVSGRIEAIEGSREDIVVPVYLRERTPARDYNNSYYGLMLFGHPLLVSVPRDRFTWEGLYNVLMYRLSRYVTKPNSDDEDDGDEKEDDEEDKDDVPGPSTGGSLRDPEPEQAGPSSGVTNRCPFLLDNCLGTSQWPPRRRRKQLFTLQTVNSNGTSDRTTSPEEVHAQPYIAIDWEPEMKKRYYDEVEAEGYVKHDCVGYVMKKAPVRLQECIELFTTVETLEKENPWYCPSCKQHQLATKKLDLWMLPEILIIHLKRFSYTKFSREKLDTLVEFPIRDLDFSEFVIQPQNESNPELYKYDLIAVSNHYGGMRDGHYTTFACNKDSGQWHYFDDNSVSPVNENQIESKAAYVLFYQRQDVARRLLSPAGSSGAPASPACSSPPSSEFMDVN
UniProt Q9Y4C1: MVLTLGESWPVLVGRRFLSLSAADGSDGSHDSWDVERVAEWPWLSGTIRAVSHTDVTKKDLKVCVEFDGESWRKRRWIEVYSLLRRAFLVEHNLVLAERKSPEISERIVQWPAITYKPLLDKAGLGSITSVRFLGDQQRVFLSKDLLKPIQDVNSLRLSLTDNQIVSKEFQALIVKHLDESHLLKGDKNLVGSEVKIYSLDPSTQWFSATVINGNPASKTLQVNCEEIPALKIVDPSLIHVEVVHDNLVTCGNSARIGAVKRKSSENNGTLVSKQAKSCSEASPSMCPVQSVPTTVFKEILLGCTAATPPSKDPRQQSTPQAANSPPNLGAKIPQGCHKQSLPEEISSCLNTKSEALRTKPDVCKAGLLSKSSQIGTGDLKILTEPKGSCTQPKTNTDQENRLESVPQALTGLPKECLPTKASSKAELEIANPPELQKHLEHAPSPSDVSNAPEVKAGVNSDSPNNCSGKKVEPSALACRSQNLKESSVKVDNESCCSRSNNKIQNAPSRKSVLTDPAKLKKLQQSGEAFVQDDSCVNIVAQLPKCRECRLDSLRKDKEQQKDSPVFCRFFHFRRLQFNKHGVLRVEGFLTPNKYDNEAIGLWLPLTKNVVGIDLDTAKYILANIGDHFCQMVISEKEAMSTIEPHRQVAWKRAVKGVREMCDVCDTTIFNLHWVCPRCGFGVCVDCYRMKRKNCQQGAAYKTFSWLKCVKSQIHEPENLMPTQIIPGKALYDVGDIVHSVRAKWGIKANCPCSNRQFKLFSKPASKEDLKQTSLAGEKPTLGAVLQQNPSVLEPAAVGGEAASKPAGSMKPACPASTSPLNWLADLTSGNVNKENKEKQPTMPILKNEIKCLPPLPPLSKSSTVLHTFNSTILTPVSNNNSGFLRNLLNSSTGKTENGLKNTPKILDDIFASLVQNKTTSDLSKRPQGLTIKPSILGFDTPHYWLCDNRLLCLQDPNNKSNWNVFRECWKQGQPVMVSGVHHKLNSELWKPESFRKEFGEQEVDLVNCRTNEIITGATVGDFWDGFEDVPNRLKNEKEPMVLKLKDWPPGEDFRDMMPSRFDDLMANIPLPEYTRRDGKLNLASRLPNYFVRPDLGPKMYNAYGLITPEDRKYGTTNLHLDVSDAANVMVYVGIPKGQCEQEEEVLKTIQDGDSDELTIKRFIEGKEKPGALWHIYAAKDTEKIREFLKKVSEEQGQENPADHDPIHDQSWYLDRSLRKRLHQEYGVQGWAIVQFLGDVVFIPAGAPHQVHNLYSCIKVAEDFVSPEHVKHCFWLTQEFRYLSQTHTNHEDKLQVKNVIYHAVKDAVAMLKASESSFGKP
UniProt Q13490, whole entry: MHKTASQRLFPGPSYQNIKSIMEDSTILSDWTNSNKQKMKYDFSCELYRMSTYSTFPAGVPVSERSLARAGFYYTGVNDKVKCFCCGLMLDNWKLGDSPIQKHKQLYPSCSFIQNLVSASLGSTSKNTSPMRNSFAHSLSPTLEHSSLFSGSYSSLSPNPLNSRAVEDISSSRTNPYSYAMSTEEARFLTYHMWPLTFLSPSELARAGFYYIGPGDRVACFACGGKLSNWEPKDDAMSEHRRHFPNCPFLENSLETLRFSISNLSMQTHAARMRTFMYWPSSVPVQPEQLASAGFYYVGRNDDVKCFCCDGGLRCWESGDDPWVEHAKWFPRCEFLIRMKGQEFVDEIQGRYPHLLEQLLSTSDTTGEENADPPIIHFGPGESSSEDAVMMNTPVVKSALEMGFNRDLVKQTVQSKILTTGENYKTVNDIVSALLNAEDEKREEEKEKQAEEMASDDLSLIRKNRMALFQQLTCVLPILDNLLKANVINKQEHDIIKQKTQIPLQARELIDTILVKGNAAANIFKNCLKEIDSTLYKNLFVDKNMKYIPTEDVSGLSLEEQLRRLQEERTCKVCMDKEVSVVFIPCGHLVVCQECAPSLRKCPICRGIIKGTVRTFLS
UniProt P19404, whole entry: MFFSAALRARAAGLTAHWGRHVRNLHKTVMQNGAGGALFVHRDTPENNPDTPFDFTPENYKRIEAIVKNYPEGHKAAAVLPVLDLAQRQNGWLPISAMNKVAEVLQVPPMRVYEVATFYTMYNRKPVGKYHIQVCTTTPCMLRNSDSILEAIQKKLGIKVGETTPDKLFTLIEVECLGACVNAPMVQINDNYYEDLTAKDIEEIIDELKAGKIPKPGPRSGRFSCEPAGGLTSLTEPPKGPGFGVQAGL
UniProt P11117: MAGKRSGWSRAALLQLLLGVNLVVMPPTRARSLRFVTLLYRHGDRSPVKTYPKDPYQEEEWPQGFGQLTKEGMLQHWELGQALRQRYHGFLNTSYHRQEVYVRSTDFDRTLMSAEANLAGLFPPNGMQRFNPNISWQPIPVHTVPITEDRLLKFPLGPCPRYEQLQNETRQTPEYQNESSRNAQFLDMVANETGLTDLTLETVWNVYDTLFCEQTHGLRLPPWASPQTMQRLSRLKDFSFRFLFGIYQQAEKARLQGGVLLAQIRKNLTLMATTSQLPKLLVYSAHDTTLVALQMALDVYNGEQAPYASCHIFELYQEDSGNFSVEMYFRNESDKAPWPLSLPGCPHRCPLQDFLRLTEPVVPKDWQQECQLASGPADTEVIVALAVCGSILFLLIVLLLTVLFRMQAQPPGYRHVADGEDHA
UniProt Q15366, whole entry: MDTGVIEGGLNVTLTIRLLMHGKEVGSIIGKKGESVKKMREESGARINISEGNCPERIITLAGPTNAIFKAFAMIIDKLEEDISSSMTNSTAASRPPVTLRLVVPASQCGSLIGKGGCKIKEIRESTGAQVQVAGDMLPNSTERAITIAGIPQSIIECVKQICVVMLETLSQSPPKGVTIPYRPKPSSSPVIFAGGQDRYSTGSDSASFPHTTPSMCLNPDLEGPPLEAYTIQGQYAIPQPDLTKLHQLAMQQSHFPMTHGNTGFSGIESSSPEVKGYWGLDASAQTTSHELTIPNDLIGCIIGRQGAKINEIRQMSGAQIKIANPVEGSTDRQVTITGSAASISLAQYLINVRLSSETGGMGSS
UniProt O95260: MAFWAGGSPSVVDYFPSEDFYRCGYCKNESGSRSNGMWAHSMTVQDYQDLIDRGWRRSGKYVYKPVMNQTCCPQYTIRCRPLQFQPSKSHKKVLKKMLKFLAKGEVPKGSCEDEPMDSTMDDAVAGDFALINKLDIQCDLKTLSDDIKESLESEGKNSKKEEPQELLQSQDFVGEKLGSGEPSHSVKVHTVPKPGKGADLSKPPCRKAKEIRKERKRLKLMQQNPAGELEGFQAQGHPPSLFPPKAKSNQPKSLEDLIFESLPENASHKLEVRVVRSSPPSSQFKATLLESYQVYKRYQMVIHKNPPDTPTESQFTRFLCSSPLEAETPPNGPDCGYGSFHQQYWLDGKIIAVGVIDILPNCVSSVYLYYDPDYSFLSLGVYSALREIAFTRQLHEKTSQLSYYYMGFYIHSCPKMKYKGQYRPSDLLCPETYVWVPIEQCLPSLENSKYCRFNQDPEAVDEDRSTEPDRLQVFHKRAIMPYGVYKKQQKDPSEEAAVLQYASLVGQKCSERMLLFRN
UniProt Q8N9N8: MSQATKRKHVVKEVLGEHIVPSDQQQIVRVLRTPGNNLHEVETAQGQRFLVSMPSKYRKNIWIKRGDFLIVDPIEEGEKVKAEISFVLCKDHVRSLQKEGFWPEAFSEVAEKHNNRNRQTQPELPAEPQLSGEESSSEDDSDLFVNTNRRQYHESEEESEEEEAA
UniProt P52747: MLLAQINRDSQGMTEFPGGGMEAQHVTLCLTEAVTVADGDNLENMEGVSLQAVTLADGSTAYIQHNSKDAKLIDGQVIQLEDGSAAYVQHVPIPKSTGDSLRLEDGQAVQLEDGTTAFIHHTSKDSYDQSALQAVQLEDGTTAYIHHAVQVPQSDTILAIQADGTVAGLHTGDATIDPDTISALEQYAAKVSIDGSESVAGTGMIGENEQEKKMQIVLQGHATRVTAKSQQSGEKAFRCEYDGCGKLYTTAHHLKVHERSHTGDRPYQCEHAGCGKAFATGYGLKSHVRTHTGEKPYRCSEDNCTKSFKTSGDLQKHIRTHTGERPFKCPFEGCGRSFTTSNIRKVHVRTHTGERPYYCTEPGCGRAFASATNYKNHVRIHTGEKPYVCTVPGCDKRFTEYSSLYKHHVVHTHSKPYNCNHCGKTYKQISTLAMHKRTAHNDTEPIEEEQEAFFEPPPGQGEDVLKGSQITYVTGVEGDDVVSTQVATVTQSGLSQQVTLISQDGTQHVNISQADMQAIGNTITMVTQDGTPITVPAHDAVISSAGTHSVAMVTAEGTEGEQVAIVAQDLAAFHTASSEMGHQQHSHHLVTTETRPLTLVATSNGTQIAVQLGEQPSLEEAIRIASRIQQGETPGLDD
UniProt Q96A26: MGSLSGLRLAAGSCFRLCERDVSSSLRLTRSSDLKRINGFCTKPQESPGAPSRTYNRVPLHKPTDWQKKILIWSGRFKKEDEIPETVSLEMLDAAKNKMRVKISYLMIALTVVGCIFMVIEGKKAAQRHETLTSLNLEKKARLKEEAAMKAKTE
UniProt Q9Y4F9: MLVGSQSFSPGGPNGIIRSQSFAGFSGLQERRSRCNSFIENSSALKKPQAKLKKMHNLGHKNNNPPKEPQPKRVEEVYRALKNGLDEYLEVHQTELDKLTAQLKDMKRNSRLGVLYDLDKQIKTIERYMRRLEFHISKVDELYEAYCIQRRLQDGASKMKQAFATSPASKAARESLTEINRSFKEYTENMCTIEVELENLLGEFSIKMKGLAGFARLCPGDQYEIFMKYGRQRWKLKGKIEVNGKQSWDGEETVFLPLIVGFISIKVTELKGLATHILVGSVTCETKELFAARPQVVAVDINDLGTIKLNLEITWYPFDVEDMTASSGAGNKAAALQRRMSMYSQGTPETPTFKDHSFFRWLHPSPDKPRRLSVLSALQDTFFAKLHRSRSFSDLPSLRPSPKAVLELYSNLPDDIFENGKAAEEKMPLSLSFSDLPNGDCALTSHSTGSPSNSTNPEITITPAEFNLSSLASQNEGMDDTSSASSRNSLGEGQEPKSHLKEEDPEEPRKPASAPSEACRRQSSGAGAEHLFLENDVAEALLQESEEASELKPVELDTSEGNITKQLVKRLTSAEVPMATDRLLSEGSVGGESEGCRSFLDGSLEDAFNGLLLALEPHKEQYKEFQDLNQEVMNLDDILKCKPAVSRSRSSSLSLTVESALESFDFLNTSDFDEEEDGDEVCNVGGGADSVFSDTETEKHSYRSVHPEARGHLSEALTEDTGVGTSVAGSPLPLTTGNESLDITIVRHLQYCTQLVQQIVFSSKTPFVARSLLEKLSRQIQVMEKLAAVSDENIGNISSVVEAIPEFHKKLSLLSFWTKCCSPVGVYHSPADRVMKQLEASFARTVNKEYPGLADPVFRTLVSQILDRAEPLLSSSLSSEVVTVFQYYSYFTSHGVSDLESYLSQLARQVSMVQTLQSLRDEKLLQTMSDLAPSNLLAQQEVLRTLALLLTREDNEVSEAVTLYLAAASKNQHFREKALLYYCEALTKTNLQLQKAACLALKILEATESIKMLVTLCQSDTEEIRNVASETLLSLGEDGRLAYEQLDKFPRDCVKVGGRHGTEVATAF

Compound: Nc1ncnc2c1ncn2[C@@H]1O[C@H](COP(=O)(O)OP(=O)(O)OP(=O)(O)O)[C@@H](O)[C@H]1O [adenosine triphosphate]
Assay: NP40-soluble protein abundance relative to vehicle (solubility fold change) (ratio); higher = more soluble protein in presence of ATP
In short: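 Eight concentrations, 0.1 to 10 mM, were tested on Jurkat crude lysate for 10 min at room temperature and then 3 min at 37 °C, in three independent experiments. The lysate was solubilised with 0.8% NP40 and benzonase, ultracentrifuged, and the supernatant TMT-labelled for LC-MS/MS. Each value is the fold change against the detergent-processed vehicle in its own replicate, from vsn-normalised intensities.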

G5E9A6 (UniProt P51784)
NP40-soluble protein abundance (concentration: 1mM): 1.06 ± 0.092 | NP40-soluble protein abundance (concentration: 2mM): 1.02 ± 0.073 | NP40-soluble protein abundance (concentration: 4mM): 1 ± 0.074 | NP40-soluble protein abundance (concentration: 6mM): 0.967 ± 0.11 | NP40-soluble protein abundance (concentration: 8mM): 1.03 ± 0.061 | NP40-soluble protein abundance (concentration: 10mM): 0.986 ± 0.064

F5H070 and related entries (UniProt Q9Y4C1)
NP40-soluble protein abundance (concentration: 1mM): 0.982 ± 0.031 | NP40-soluble protein abundance (concentration: 2mM): 0.991 ± 0.027 | NP40-soluble protein abundance (concentration: 4mM): 0.989 ± 0.031 | NP40-soluble protein abundance (concentration: 6mM): 0.987 ± 0.03 | NP40-soluble protein abundance (concentration: 8mM): 0.965 ± 0.03 | NP40-soluble protein abundance (concentration: 10mM): 0.996 ± 0.039

E9PMH5 and related entries (UniProt Q13490)
NP40-soluble protein abundance (concentration: 1mM): 1.02 ± 0.13 | NP40-soluble protein abundance (concentration: 2mM): 1.12 ± 0.059 | NP40-soluble protein abundance (concentration: 4mM): 1.11 ± 0.1 | NP40-soluble protein abundance (concentration: 6mM): 1.09 ± 0.11 | NP40-soluble protein abundance (concentration: 8mM): 1.08 ± 0.16 | NP40-soluble protein abundance (concentration: 10mM): 1.13 ± 0.13

E7EPT4 and related entries (UniProt P19404)
NP40-soluble protein abundance (concentration: 1mM): 0.929 ± 0.1 | NP40-soluble protein abundance (concentration: 2mM): 0.918 ± 0.075 | NP40-soluble protein abundance (concentration: 4mM): 0.903 ± 0.074 | NP40-soluble protein abundance (concentration: 6mM): 0.885 ± 0.12 | NP40-soluble protein abundance (concentration: 8mM): 0.91 ± 0.078 | NP40-soluble protein abundance (concentration: 10mM): 0.844 ± 0.072

E9PNT2 and related entries (UniProt Q6ZUM4)
NP40-soluble protein abundance (concentration: 1mM): 0.986 ± 0.021 | NP40-soluble protein abundance (concentration: 2mM): 0.993 ± 0.025 | NP40-soluble protein abundance (concentration: 4mM): 0.993 ± 0.021 | NP40-soluble protein abundance (concentration: 6mM): 1 ± 0.06 | NP40-soluble protein abundance (concentration: 8mM): 1.03 ± 0.028 | NP40-soluble protein abundance (concentration: 10mM): 1.01 ± 0.045

E9PQY3 and related entries (UniProt P11117)
NP40-soluble protein abundance (concentration: 1mM): 0.975 ± 0.03 | NP40-soluble protein abundance (concentration: 2mM): 1.03 ± 0.014 | NP40-soluble protein abundance (concentration: 4mM): 0.996 ± 0.027 | NP40-soluble protein abundance (concentration: 6mM): 1.04 ± 0.046 | NP40-soluble protein abundance (concentration: 8mM): 0.964 ± 0.066 | NP40-soluble protein abundance (concentration: 10mM): 0.925 ± 0.077

F8VRH0 and related entries (UniProt Q15366)
NP40-soluble protein abundance (concentration: 1mM): 0.981 ± 0.024 | NP40-soluble protein abundance (concentration: 2mM): 1.019 ± 0.0031 | NP40-soluble protein abundance (concentration: 4mM): 0.979 ± 0.023 | NP40-soluble protein abundance (concentration: 6mM): 0.992 ± 0.026 | NP40-soluble protein abundance (concentration: 8mM): 0.95 ± 0.037 | NP40-soluble protein abundance (concentration: 10mM): 0.954 ± 0.036

F5GXE4 and related entries (UniProt O95260)
NP40-soluble protein abundance (concentration: 1mM): 0.983 ± 0.039 | NP40-soluble protein abundance (concentration: 2mM): 0.973 ± 0.061 | NP40-soluble protein abundance (concentration: 4mM): 0.968 ± 0.037 | NP40-soluble protein abundance (concentration: 6mM): 0.987 ± 0.051 | NP40-soluble protein abundance (concentration: 8mM): 0.97 ± 0.053 | NP40-soluble protein abundance (concentration: 10mM): 0.972 ± 0.039

E9PLI6 and related entries (UniProt Q8N9N8)
NP40-soluble protein abundance (concentration: 1mM): 1.05 ± 0.0085 | NP40-soluble protein abundance (concentration: 2mM): 1.04 ± 0.012 | NP40-soluble protein abundance (concentration: 4mM): 1.05 ± 0.025 | NP40-soluble protein abundance (concentration: 6mM): 1.07 ± 0.014 | NP40-soluble protein abundance (concentration: 8mM): 0.987 ± 0.089 | NP40-soluble protein abundance (concentration: 10mM): 1.01 ± 0.092

F5H6I7 and related entries (UniProt Q6DD88)
NP40-soluble protein abundance (concentration: 1mM): 1.01 ± 0.053 | NP40-soluble protein abundance (concentration: 2mM): 0.999 ± 0.068 | NP40-soluble protein abundance (concentration: 4mM): 0.967 ± 0.062 | NP40-soluble protein abundance (concentration: 6mM): 0.971 ± 0.089 | NP40-soluble protein abundance (concentration: 8mM): 0.98 ± 0.045 | NP40-soluble protein abundance (concentration: 10mM): 0.975 ± 0.062

E7EN86 and related entries (UniProt P52747)
NP40-soluble protein abundance (concentration: 1mM): 0.981 ± 0.032 | NP40-soluble protein abundance (concentration: 2mM): 0.996 ± 0.038 | NP40-soluble protein abundance (concentration: 4mM): 0.96 ± 0.042 | NP40-soluble protein abundance (concentration: 6mM): 0.984 ± 0.032 | NP40-soluble protein abundance (concentration: 8mM): 0.944 ± 0.059 | NP40-soluble protein abundance (concentration: 10mM): 0.981 ± 0.016

G3V3H3 and related entries (UniProt Q07866)
NP40-soluble protein abundance (concentration: 1mM): 0.9516 ± 0.0045 | NP40-soluble protein abundance (concentration: 2mM): 0.947 ± 0.034 | NP40-soluble protein abundance (concentration: 4mM): 0.917 ± 0.042 | NP40-soluble protein abundance (concentration: 6mM): 0.971 ± 0.032 | NP40-soluble protein abundance (concentration: 8mM): 0.91 ± 0.049 | NP40-soluble protein abundance (concentration: 10mM): 0.913 ± 0.049

F8W7Q4 and related entries (UniProt Q96A26)
NP40-soluble protein abundance (concentration: 1mM): 0.928 ± 0.18 | NP40-soluble protein abundance (concentration: 2mM): 0.928 ± 0.2 | NP40-soluble protein abundance (concentration: 4mM): 0.923 ± 0.18 | NP40-soluble protein abundance (concentration: 6mM): 0.887 ± 0.21 | NP40-soluble protein abundance (concentration: 8mM): 0.832 ± 0.092 | NP40-soluble protein abundance (concentration: 10mM): 0.854 ± 0.17

F5GX51 and related entries (UniProt Q9Y4F9)
NP40-soluble protein abundance (concentration: 1mM): 1.03 ± 0.038 | NP40-soluble protein abundance (concentration: 2mM): 1.02 ± 0.015 | NP40-soluble protein abundance (concentration: 4mM): 1.02 ± 0.035 | NP40-soluble protein abundance (concentration: 6mM): 0.973 ± 0.049 | NP40-soluble protein abundance (concentration: 8mM): 0.986 ± 0.029 | NP40-soluble protein abundance (concentration: 10mM): 1.02 ± 0.025

E9PJZ7 and related entries (UniProt Q13136)
NP40-soluble protein abundance (concentration: 1mM): 0.972 ± 0.065 | NP40-soluble protein abundance (concentration: 2mM): 0.967 ± 0.044 | NP40-soluble protein abundance (concentration: 4mM): 0.979 ± 0.017 | NP40-soluble protein abundance (concentration: 6mM): 1.01 ± 0.056 | NP40-soluble protein abundance (concentration: 8mM): 0.957 ± 0.03 | NP40-soluble protein abundance (concentration: 10mM): 0.971 ± 0.043
